Several values for one entry are separate records, joined by “and”; a condition that tells them apart may be missing. Equal entries are not always repeated. Where two headings read alike, the source gives them in different places. This continues a long series; more values of the same kind are listed elsewhere.
Test system: patients with primary aldosteronism
Settings: 4 mg, patients 1,5,8,14,18,21,22,25,28,30 in row order
Protocol: A double-blind, randomized, Phase 2 trial was conducted between November 2019 and June 2022 at 11 centres in Italy, Switzerland and the Netherlands (NCT04007406). […] Patients requiring fixed-dose antihypertensive therapy continued treatment throughout the study; steroid therapies, β-adrenergic and renin-angiotensin-aldosterone system blockers were not permitted. At 14-day intervals, office blood pressures were recorded and blood samples were taken for measurement of steroid and peptide hormones and electrolytes at a central laboratory.
Plasma aldosterone and plasma renin concentration were measured centrally under GCP regulations using the Liaison® chemiluminescent immunoassay kit supplied by DiaSorin S.p.A. Italy. The system used specific monoclonal antibodies to prevent cross reactions with other major potential reactants in the serum samples. The monoclonal antibodies directed against specific epitopes of the renin molecule allowed accurate and sensitive quantification. The assays were performed according to the instructions provided by the manufacturer. […] The analytical sensitivity was <0.97 ng/ml. […] The analytical sensitivity was <0.53 IU/mL.
For all efficacy endpoints, changes from baseline were calculated from linear models and accompanied by 95% confidence intervals and p values. Log-transformed values were used for changes in ARR. The full analysis set (FAS) and safety set were defined as all randomized patients who received at least one dose of study drug.

(R)-(+)-5-(p-cyanophenyl)-5,6,7,8-tetrahydroimidazolium[1,5-a]pyridine dihydrogen phosphate [dexfadrostat phosphate]
ARR, individual patient values (Day 1 (baseline)): 18.0 (ng/dL)/(mU/L) and 24.8 (ng/dL)/(mU/L)
ARR, individual patient values (Day 14): 0.7 (ng/dL)/(mU/L)
ARR, individual patient values (Day 28): 3.1 (ng/dL)/(mU/L) and 1.1 (ng/dL)/(mU/L)
ARR, individual patient values (Day 42): 3.8 (ng/dL)/(mU/L) and 1.7 (ng/dL)/(mU/L)

Source: patent US20260124184A1, “ONCE DAILY ALDOSTERONE SYNTHASE INHIBITOR (R)-(+)-5-(P-CYANOPHENYL)-5,6,7,8-TETRAHYDROIMIDAZO[L,5-A]PYRIDINE” (priority 2022, published 2026)
